Experimental data from US20100150918A1.
Numbering of substitutions follows the chain as printed. Names and notes keep the numbering of the source. These are yes or no findings as the source states them, for the method shown. Some binding calls cover weakened binding; strength is not graded here.

What was measured:
Experiment in all cases: FACS 293-HEK transfectant
[1] = biological target: T1, 1-27 CD3-EpCAM, marmoset 27 mer (Callithrix jacchus; cynomolgus)
T1 sequence: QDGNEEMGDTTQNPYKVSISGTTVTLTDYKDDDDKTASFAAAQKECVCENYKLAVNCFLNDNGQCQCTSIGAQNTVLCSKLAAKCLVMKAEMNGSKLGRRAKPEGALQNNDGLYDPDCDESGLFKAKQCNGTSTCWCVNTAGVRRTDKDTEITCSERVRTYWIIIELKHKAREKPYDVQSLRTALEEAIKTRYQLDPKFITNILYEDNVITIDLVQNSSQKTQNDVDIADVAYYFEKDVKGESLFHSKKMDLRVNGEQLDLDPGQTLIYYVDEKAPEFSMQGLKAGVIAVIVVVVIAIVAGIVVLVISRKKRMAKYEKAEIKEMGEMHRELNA

[2] = biological target: T2, 1-27 CD3-EpCAM, tamarin 27 mer (Saguinus oedipus; cynomolgus)
T2 sequence: T1 sequence

[3] = biological target: T3, 1-27 CD3-EpCAM, squirrel monkey 27 mer (Saimiri sciureus; cynomolgus)
T3 sequence: T1 sequence with M7I

binding [1]: binds
binding [2]: binds
binding [3]: binds
B1: E2M HLP (scFv)
scFv: EVQLLESGGGLVQPGGSLKLSCAASGFTFNGYAMNWVRQAPGKGLEWVARIRSKYNNYATYYADSVKERFTISRDDSKNTAYLQMNNLKTEDTAVYYCVRHRNFGNSYLSWFAYWGQGTLVTVSSGGGGSGGGGSGGGGSELVVTQEPSLTVSPGGTVTLTCRSSTGAVTSGYYPNWVQQKPGQAPRGLIGATDMRPSGTPARFSGSLLGGKAALTLSGVQPEDEAEYYCALWYSNRWVFGGGTKLTVL
